In patent publication US20080311599A1:
No constants are given. Whether binding was seen depends on the method and setting. Binding seen in cells or lysates may run through a third protein. Some binding calls cover weakened binding; strength is not graded here.

Amino acid sequences for entries named in this document (tags omitted). A change or cut given only in a name is not applied to a line headed by its entry.
UniProt Q14790: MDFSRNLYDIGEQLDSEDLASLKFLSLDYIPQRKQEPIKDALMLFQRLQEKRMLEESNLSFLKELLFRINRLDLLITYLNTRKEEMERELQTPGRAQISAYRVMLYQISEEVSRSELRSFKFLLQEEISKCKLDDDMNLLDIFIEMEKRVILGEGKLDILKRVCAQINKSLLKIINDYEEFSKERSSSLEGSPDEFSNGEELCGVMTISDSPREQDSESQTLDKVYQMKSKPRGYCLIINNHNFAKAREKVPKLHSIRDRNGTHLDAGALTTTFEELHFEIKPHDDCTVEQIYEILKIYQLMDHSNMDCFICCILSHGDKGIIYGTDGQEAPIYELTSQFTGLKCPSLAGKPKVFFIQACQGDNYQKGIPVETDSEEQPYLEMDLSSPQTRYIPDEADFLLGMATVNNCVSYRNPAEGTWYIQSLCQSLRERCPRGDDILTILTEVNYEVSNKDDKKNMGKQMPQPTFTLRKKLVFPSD

Legend:
[1] = target: pro-caspase-8 (human) (UniProt Q14790); assay: co-immunoprecipitation with mAb 179 from BJAB lysates, Silver staining
[2] = target: pro-caspase-8 (human) (UniProt Q14790); assay: co-immunoprecipitation with mAb 179 from BJAB lysates, time course, Silver staining
[3] = target: pro-caspase-8 (human) (UniProt Q14790); assay: co-immunoprecipitation from lysates of non-stimulated cell lines
[4] = target: pro-caspase-8 (human) (UniProt Q14790); assay: co-immunoprecipitation with mAb 179 from BJAB lysates, SDS-PAGE and Silver staining
[5] = target: pro-caspase-8 (human) (UniProt Q14790); assay: co-immunoprecipitation with mAb 179
[6] = target: pro-caspase-8 (human) (UniProt Q14790); assay: co-immunoprecipitation with mAb 179 from BJAB lysates, time course of Fas-ligand treatment
[7] = target: pro-caspase-8 (human) (UniProt Q14790); assay: co-immunoprecipitation with mAb 179 from BJAB lysates after 20 minutes of Fas-ligand, Silver staining
[8] = target: pro-caspase-8 (human) (UniProt Q14790); assay: co-immunoprecipitation with mAb 179 from BJAB lysates after 20 minutes of Fas-ligand

Measured: binding

B1: p72 (protein)
chain: MSLKMDNRDVAGKANRWFGVAPPKSGKMNMNILHQEELIAQKKREIEAKMEQKAKQNQVASPQPPHPGEITNAHNSSCISNKFANDGSFLQQFLKLQKAQTSTDAPTSAPSAPPSTPTPSAGKRSLLISRRTGLGLASLPGPVKSYSHAKQLPVAHRPSVFQSPDEDEEEDYEQWLEIKVSPPEGAETRKVIEKLARFVAEGGPELEKVAMEDYKDNPAFAFLHDKNSREFLYYRKKVAEIRKEAQKSQAASQKVSPPEDEEVKNLAEKLARFIADGGPEVETIALQNNRENQAFSFLYEPNSQGYKYYRQKLEEFRKAKASSTGSFTAPDPGLKRKSPPEALSGSLPPATTCPASSTPAPTIIPAPAAPGKPASAATVKRKRKSRWGPEEDKVELLPAELVQRDVDASPSPLSVQDLKGLGYEKGKPVGLVGVTELSDAQKKQLKEQQEMQQMYDMIMQHKRAMQDMQLLWEKAVQQHQHGYDSDEEVDSELGTWEHQLRRMEMDKTREWAEQLTKMGRGKHFIGDFLPPDELEKFMETFKALKEGREPDYSEYKEFKLTVENIGYQMLMKMGWKEGEGLGSEGQGIKNPVNKGTTTVDGAGFGIDRPAELSKEDDEYEAFRKRMMLAYRFRPNPLNNPRRPYY
binds: [1] | [2] | [3] | [4] | [5]

B2: 68 kDa fragment of p72 (protein)
chain: MSLKMDNRDVAGKANRWFGVAPPKSGKMNMNILHQEELIAQKKREIEAKMEQKAKQNQVASPQPPHPGEITNAHNSSCISNKFANDGSFLQQFLKLQKAQTSTDAPTSAPSAPPSTPTPSAGKRSLLISRRTGLGLASLPGPVKSYSHAKQLPVAHRPSVFQSPDEDEEEDYEQWLEIKVSPPEGAETRKVIEKLARFVAEGGPELEKVAMEDYKDNPAFAFLHDKNSREFLYYRKKVAEIRKEAQKSQAASQKVSPPEDEEVKNLAEKLARFIADGGPEVETIALQNNRENQAFSFLYEPNSQGYKYYRQKLEEFRKAKASSTGSFTAPDPGLKRKSPPEALSGSLPPATTCPASSTPAPTIIPAPAAPGKPASAATVKRKRKSRWGPEEDKVELLPAELVQRDVDASPSPLSVQDLKGLGYEKGKPVGLVGVTELSDAQKKQLKEQQEMQQMYDMIMQHKRAMQDMQLLWEKAVQQHQHGYDSDEEVDSELGTWEHQLRRMEMDKTREWAEQLTKMGRGKHFIGDFLPPDELEKFMETFKALKEGREPDYSEYKEFKLTVENIGYQMLMKMGWKEGEGLGSEGQGIKNPVNKGTTTVD
binds: [2] | [6] | [7] | [8]
